In patent publication US10358426B2, “Fungicidal substituted 2-[2-halogenalkyl-4-(phenoxy)-phenyl]-1-[1,2,4]triazol-1-yl-ethanol compounds” (BASF Agro B.V., priority 2011, dated 2019):
Where two headings read alike, the source gives them in different places. Some entries share one result that the patent states for a list of compounds.

Tests used:
[1] = system: Puccinia recondita; test: Preventative control of brown rust on wheat (Puccrt P1), greenhouse; format: in vivo
[2] = system: Phakopsora pachyrhizi; format: in vivo
[3] = system: Septoria tritici; test: Preventative control of leaf blotch on wheat, inoculation next day (Septtr P1), greenhouse; format: in vivo
[4] = system: Alternaria solani; test: Preventative fungicidal control of early blight on tomatoes (Alteso P1), greenhouse; settings: untreated plants 90% infected
[5] = system: Pyricularia oryzae; format: cell-based
[6] = system: Botrytis cinerea; test: Activity against the grey mold in the microtiterplate test (Botrci); format: cell-based; settings: 32 ppm; Use Example 10 M1
[7] = system: Septoria tritici; test: Activity against leaf blotch on wheat, microtest (Septtr); format: cell-based; settings: 32 ppm; Use Example 10 M3
[8] = system: Alternaria solani; test: Activity against early blight, microtest (Alteso); format: cell-based; settings: 32 ppm; Use Example 10 M4
[9] = system: Leptosphaeria nodorum; test: Activity against wheat leaf spots, microtest (Leptno); format: cell-based; settings: 32 ppm; Use Example 10 M5
[10] = system: Botrytis cinerea; test: Preventative control of grey mold on leaves of green pepper (Botrci P1), greenhouse; format: in vivo; settings: 150 ppm, untreated plants 90% infected
[11] = 300 ppm, Puccrt P1, untreated plants 80% infected
[12] = 300 ppm, Phakpa P1, untreated plants 80% infected
[13] = 300 ppm, Septtr P1, untreated plants 80% infected
[14] = 150 ppm, wheat, untreated plants 90% infected

`COC(Cn1cncn1)(c1ccc(Oc2ccc(Cl)cc2)cc1C(F)(F)F)C1CC1` (stereo not drawn) [I-12] was tested, and the “infection (% diseased leaf area)” value [1, 11] was “less than or equal to 10%”, the “infection (% diseased leaf area)” value [2, 12] was “less than or equal to 1%” and the “infection (% diseased leaf area)” value [3, 13] was “less than or equal to 7%”. The “infection (% diseased leaf area)” value ([4]; 300 ppm, Alteso P1) was “less than or equal to 10%”.
In the case of `OC(Cn1cncn1)c1ccc(Oc2ccc(Cl)cc2Cl)cc1C(F)(F)F` (stereo not drawn) [I-13], the “growth (relative growth in % of control)” value ([5]; 32 ppm, Use Example 10 M2) is reported as no more than 2%, the “growth (relative growth in % of control)” value [6] is reported as no more than 2% and the “growth (relative growth in % of control)” value [7] is reported as no more than 6%. The “growth (relative growth in % of control)” value [8] was no more than 1% and the “growth (relative growth in % of control)” value [9] was no more than 1%.
In the case of `CCOC(C)(Cn1cncn1)c1ccc(Oc2ccc(Cl)cc2)cc1C(F)(F)F` (stereo not drawn) [I-17], the “infection (% diseased leaf area)” value [1, 11] is reported as “less than or equal to 10%”, the “infection (% diseased leaf area)” value [2, 12] is reported as “less than or equal to 1%” and the “infection (% diseased leaf area)” value [3, 13] is reported as “less than or equal to 7%”. The “infection (% diseased leaf area)” value ([4]; 300 ppm, Alteso P1) was “less than or equal to 10%”.
With `CC#CC(Cn1cncn1)(OCC)c1ccc(Oc2ccc(Cl)cc2)cc1C(F)(F)F` (stereo not drawn) [I-19] the “infection (% diseased leaf area)” value [1, 11] was “less than or equal to 10%”, the “infection (% diseased leaf area)” value [3, 13] was “less than or equal to 7%” and the “infection (% diseased leaf area)” value ([4]; 300 ppm, Alteso P1) was “less than or equal to 10%”.
In the case of `C#CCOC(C#CC)(Cn1cncn1)c1ccc(Oc2ccc(Cl)cc2)cc1C(F)(F)F` (stereo not drawn) [I-20], the “infection (% diseased leaf area)” value [1, 11] is reported as “less than or equal to 10%”, the “infection (% diseased leaf area)” value [3, 13] is reported as “less than or equal to 7%” and the “infection (% diseased leaf area)” value ([4]; 300 ppm, Alteso P1) is reported as “less than or equal to 10%”.
For `CCCC(O)(Cn1cncn1)c1ccc(Oc2ccc(Cl)cc2)cc1C(F)(F)F` (stereo not drawn) [compound I-4], the “infection (% diseased leaf area)” value [10] was “less than or equal to 15%”, the “infection (% diseased leaf area)” value [1, 14] was “less than or equal to 15%” and the “infection (% diseased leaf area)” value ([2]; 150 ppm, soy bean, untreated plants 90% infected) was “less than or equal to 15%”. For the same compound, the “infection (% diseased leaf area)” value [3, 14] was “less than or equal to 15%”, the “growth (relative growth in % of control)” value ([5]; 2 ppm, Use Example 6) was no more than 4% and the “infection (% diseased leaf area)” value ([4]; 150 ppm, tomato) was “less than or equal to 15%”.
`CC(O)(Cn1cncn1)c1ccc(Oc2ccc(F)cc2)cc1C(F)(F)F` (stereo not drawn) [compound I-16] was tested, and the “growth (relative growth in % of control)” value ([5]; 32 ppm, Use Example 10 M2) was no more than 2%, the “growth (relative growth in % of control)” value [6] was no more than 2% and the “growth (relative growth in % of control)” value [7] was no more than 6%. For the same compound, the “growth (relative growth in % of control)” value [8] was no more than 1% and the “growth (relative growth in % of control)” value [9] was no more than 1%.
